A short description of data set [1]: general procedure: Fmoc solid-phase peptide synthesis; D(Boc)-Wang resin; TBTU/DIPEA; propiolic acid coupled with HATU without DIPEA. Conditions: whole synthesis, scale 1 g resin.
The nature of data set [2]: general procedure: Fmoc solid-phase peptide synthesis; K(Boc)-Rink amide resin; TBTU/DIPEA; propiolic acid coupled with HATU without DIPEA. The conditions noted are these: whole synthesis, scale 2 g resin.

Our source for the isolated mass values is US10117946B2 (Agency for Science, Technology and Research, priority 2012, dated 2018).

Substance LIVAGD-OH had an isolated mass in data set [1] of 107.2 mg. Consider “LIVAGK-NH2 (N-acetyl, C-amide, propiolic acid alkyne functionalization)”, for which the isolated mass in data set [2] came to 384 mg.
